# Laboratory results as given in the supplement of paper PMC8728848.
# Some of the results follow.
# B1: LF82 (Escherichia coli) (protein)
# chain: ADWGPCRTASGDPFIFVTSFTKNIQNPTDNVTGQTYPDFYQWALGDKYSGVCECPSPNPTEARPTLYKTESTLAAGHNSTYFKITNNLEVSTRVYIANVGNVQVPFINKSNSQPGRECDQPTFGWTTGSKGQLSLYIAKPFVGEQNIPQTIIVSVFGTKKENVYSSVPISQVLLSGKVTVTQGCELAAGTSLDIDFGEYQAHDFKGRTGQPPQNVQKIQKELTFNCTNISDGVHIYLSLEGTPNAAYPSAISLGNADVGAVIEDGKGNILKPNDSNSLLEMNPGSLYEYVKRKVTTTITAYPVSTTGKLPAAGDYSGVATMHVELDGGGGGGGGGGATTDLGAKGTLKFSLKISQGHHHHHH
# Tests used:
# Test in all cases: glycan array binding signal (z-score within array); higher = stronger binding
# Details in all cases: glycan notation: IUPAC condensed, linker removed
# Gal6S(b1-4)Glc6S = biological target: Gal6S(b1-4)Glc6S
# Outline: (§1)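 The binding signal is a Z-score computed within each array. Data were drawn from 3228 arrays in the Consortium for Functional Glycomics database, restricted to those with a known protein sequence. Scores were averaged over arrays of the same protein sequence at different concentrations or buffers, and over linkers, and negative values can be taken as non-binding.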
# Gal6S(b1-4)GlcNAc = biological target: Gal6S(b1-4)GlcNAc
# Outline: as §1
# Gal6S(b1-4)GlcNAc6S = biological target: Gal6S(b1-4)GlcNAc6S
# Outline: as §1
# GalNAc(a1-3)Gal = biological target: GalNAc(a1-3)Gal
# Outline: as §1
# GalNAc(a1-3)GalNAc = biological target: GalNAc(a1-3)GalNAc
# Outline: as §1
# [1] = biological target: GalNAc(a1-3)GalNAc(b1-3)Gal(a1-4)Gal(b1-4)Glc
# Outline: as §1
# [2] = biological target: GalNAc(a1-3)GalNAc(b1-3)Gal(a1-4)Gal(b1-4)GlcNAc
# Outline: as §1
# GalNAc(b1-3)Gal = biological target: GalNAc(b1-3)Gal
# Outline: as §1
# [3] = biological target: GalNAc(b1-3)Gal(a1-4)Gal(b1-4)GlcNAc
# Outline: as §1
# [4] = biological target: GalNAc(b1-3)Gal(a1-4)Gal(b1-4)GlcNAc(b1-3)Gal(b1-4)Glc
# Outline: as §1
# [5] = biological target: GalNAc(b1-3)Gal(a1-6)Gal(b1-4)Glc
# Outline: as §1
# GalNAc(b1-3)GalNAc = biological target: GalNAc(b1-3)GalNAc
# Outline: as §1
# GalNAc(b1-3)GlcNAc = biological target: GalNAc(b1-3)GlcNAc
# Outline: as §1
# GalNAc(b1-4)Gal(b1-4)Glc = biological target: GalNAc(b1-4)Gal(b1-4)Glc
# Outline: as §1
# GalNAc(b1-4)GlcNAc = biological target: GalNAc(b1-4)GlcNAc
# Outline: as §1
# [6] = biological target: GalNAc(b1-4)GlcNAc(b1-2)Man
# Outline: as §1
# [7] = biological target: GalNAc(b1-4)GlcNAc(b1-2)Man(a1-3)[GalNAc(b1-4)GlcNAc(b1-2)Man(a1-6)]Man(b1-4)GlcNAc(b1-4)GlcNAc
# Outline: as §1
# [8] = biological target: GalNAc(b1-4)GlcNAc(b1-3)GalNAc(b1-4)GlcNAc
# Outline: as §1
# GalNAc(b1-4)GlcNAc6S = biological target: GalNAc(b1-4)GlcNAc6S
# Outline: as §1
# GalNAc(b1-6)GalNAc = biological target: GalNAc(b1-6)GalNAc
# Outline: as §1
# GalNAc3S(b1-4)GlcNAc = biological target: GalNAc3S(b1-4)GlcNAc
# Outline: as §1
# GalNAc3S(b1-4)GlcNAc3S = biological target: GalNAc3S(b1-4)GlcNAc3S
# Outline: as §1
# [9] = biological target: GalNAc3S(b1-4)[Fuc(a1-3)]GlcNAc
# Outline: as §1
# GalNAc4S6S(b1-4)GlcNAc = biological target: GalNAc4S6S(b1-4)GlcNAc
# Outline: as §1
# GalNAc6S(b1-4)GlcNAc = biological target: GalNAc6S(b1-4)GlcNAc
# Outline: as §1
# Glc(a1-4)Glc = biological target: Glc(a1-4)Glc
# Outline: as §1
# [10] = biological target: Glc(a1-4)Glc(a1-4)Glc(a1-4)Glc
# Outline: as §1
# Glc(a1-6)Glc(a1-6)Glc = biological target: Glc(a1-6)Glc(a1-6)Glc
# Outline: as §1
# [11] = biological target: Glc(a1-6)Glc(a1-6)Glc(a1-6)Glc
# Outline: as §1
# Glc(b1-4)Glc = biological target: Glc(b1-4)Glc
# Outline: as §1
# Glc(b1-6)Glc = biological target: Glc(b1-6)Glc
# Outline: as §1
# GlcA(b1-3)Gal = biological target: GlcA(b1-3)Gal
# Outline: as §1
# GlcA(b1-3)GlcNAc = biological target: GlcA(b1-3)GlcNAc
# Outline: as §1
# GlcA(b1-6)Gal = biological target: GlcA(b1-6)Gal
# Outline: as §1
# [12] = biological target: GlcA3S(b1-3)Gal(b1-4)GlcNAc(b1-2)Man
# Outline: as §1
# [13] = biological target: GlcA3S(b1-3)Gal(b1-4)GlcNAc(b1-3)Gal(b1-4)Glc
# Outline: as §1
# [14] = biological target: GlcNAc(a1-3)Gal(b1-4)GlcNAc
# Outline: as §1
binder,measurement,setting,value
B1,glycan array binding signal (z-score),Gal6S(b1-4)Glc6S,1.7
same,glycan array binding signal (z-score),Gal6S(b1-4)GlcNAc,0.02
same,glycan array binding signal (z-score),Gal6S(b1-4)GlcNAc6S,0.849
same,glycan array binding signal (z-score),GalNAc(a1-3)Gal,-0.316
same,glycan array binding signal (z-score),GalNAc(a1-3)GalNAc,-0.252
same,glycan array binding signal (z-score),[1],0.343
same,glycan array binding signal (z-score),[2],-0.744
same,glycan array binding signal (z-score),GalNAc(b1-3)Gal,0.142
same,glycan array binding signal (z-score),[3],2.1
same,glycan array binding signal (z-score),[4],-0.512
same,glycan array binding signal (z-score),[5],0.447
same,glycan array binding signal (z-score),GalNAc(b1-3)GalNAc,0.423
same,glycan array binding signal (z-score),GalNAc(b1-3)GlcNAc,-0.22
same,glycan array binding signal (z-score),GalNAc(b1-4)Gal(b1-4)Glc,0.956
same,glycan array binding signal (z-score),GalNAc(b1-4)GlcNAc,0.982
same,glycan array binding signal (z-score),[6],0.518
same,glycan array binding signal (z-score),[7],-0.272
same,glycan array binding signal (z-score),[8],0.16
same,glycan array binding signal (z-score),GalNAc(b1-4)GlcNAc6S,-0.757
same,glycan array binding signal (z-score),GalNAc(b1-6)GalNAc,-0.45
same,glycan array binding signal (z-score),GalNAc3S(b1-4)GlcNAc,-0.069
same,glycan array binding signal (z-score),GalNAc3S(b1-4)GlcNAc3S,0.34
same,glycan array binding signal (z-score),[9],0.051
same,glycan array binding signal (z-score),GalNAc4S6S(b1-4)GlcNAc,-0.262
same,glycan array binding signal (z-score),GalNAc6S(b1-4)GlcNAc,-0.033
same,glycan array binding signal (z-score),Glc(a1-4)Glc,-0.601
same,glycan array binding signal (z-score),[10],1.21
same,glycan array binding signal (z-score),Glc(a1-6)Glc(a1-6)Glc,-0.628
same,glycan array binding signal (z-score),[11],-0.531
same,glycan array binding signal (z-score),Glc(b1-4)Glc,-0.609
same,glycan array binding signal (z-score),Glc(b1-6)Glc,-0.504
same,glycan array binding signal (z-score),GlcA(b1-3)Gal,-0.731
same,glycan array binding signal (z-score),GlcA(b1-3)GlcNAc,-0.481
same,glycan array binding signal (z-score),GlcA(b1-6)Gal,-0.657
same,glycan array binding signal (z-score),[12],-0.536
same,glycan array binding signal (z-score),[13],-0.41
same,glycan array binding signal (z-score),[14],-0.08

# Looked up one by one from above, two records:
binder,measurement,setting,value
B1,glycan array binding signal (z-score),GalNAc(a1-3)Gal,-0.316
same,glycan array binding signal (z-score),[4],-0.512
